Experimental data: US20110250133A1, “GASTRIN RELEASING PEPTIDE COMPOUNDS” (priority 2003, published 2011)
Structures can show the parent of a compound that is named as a salt.

Test system: BT-474 tumor-bearing nude mice

SMILES | 177Lu-AMBA in Blood (% ID) after Tamoxifen (BT-474 mice, +Tamoxifen/+ES, 1 hr, control 0.14 ± 0.06) [% ID] | 177Lu-AMBA in Kidneys (% ID) after Tamoxifen (BT-474 mice, +Tamoxifen/+ES, 1 hr, control 2.69 ± 0.28) [% ID] | 177Lu-AMBA in Gastrointestinal (% ID) after Tamoxifen (BT-474 mice, +Tamoxifen/+ES, 1 hr, control 11.93 ± 0.43) [% ID] | 177Lu-AMBA in Pancreas (% ID) after Tamoxifen (BT-474 mice, +Tamoxifen/+ES, 1 hr, control 12.50 ± 0.67) [% ID] | 177Lu-AMBA in Bladder/urine (% ID) after Tamoxifen (BT-474 mice, +Tamoxifen/+ES, 1 hr, control 42.79 ± 1.58) [% ID] | 177Lu-AMBA in Tumor (% ID/g) after Tamoxifen (BT-474 mice, +Tamoxifen/+ES, day 14, 1 hr after 177Lu-AMBA, control 2.18 ± 0.63, P < 0.05) [% ID/g] | decrease in 177Lu-AMBA binding of tumor (25 mg/kg, day 14, β2-estradiol supplemented BT-474 tumor bearing mice, 1 h, vs control tumor) [%]
CC/C(=C(\c1ccccc1)c1ccc(OCCN(C)C)cc1)c1ccccc1 [Tamoxifen] | 0.13 ± 0.05 | 2.30 ± 0.88 | 10.93 ± 3.19 | 9.81 ± 2.83 | 54.82 ± 6.54 | 0.70 ± 0.39 | –
CC/C(=C(\c1ccccc1)c1ccc(OCCN(C)C)cc1)c1ccccc1 [Tamoxifen citrate] | – | – | – | – | – | – | 68
